# PubChem BioAssay AID1224827, NIAID | 2016
# Purpose: 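Identify regulators of the macrophage TNF-alpha response to bacterial LPS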 (follow-up of hits)
# Cells: RAW264.7 G9 mouse macrophage reporter clone
# Reagents: single siRNA against mouse genes, 100 nM siRNA
# Time to read-out: siRNA for 2 days, then LPS about 16 h
# Challenge: bacterial lipopolysaccharide (LPS), 10 ng/ml, cells fixed after overnight (about 16 h) stimulation
# Read-out: 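TNF promoter reporter red fluorescence in nuclei, background subtracted, normalised per plate and to non-targeting control siRNA, as z-scores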
# Reading the numbers: TNF reporter z-score, mean and TNF reporter z-score: higher = stronger Tnf promoter reporter signal; gene median z, three same-vendor siRNAs: higher = stronger Tnf reporter signal for the gene
# Call rule: 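Active siRNA: replicate-mean z-score of 2 or more, or -2 or less; no calls for control wells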
# This is one part, drawn at random, of about 3,800 deposited reagents. About 2,200 of them (57%) were called active. 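Active means a strong reporter change in either direction; calls are per siRNA, not per gene; qiagen siRNAs gave weaker effects.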 Reagents against one gene are numbered here. Reagent sequences are not shown.
target gene,reagent,"TNF reporter z-score, mean","gene median z, three same-vendor siRNAs","TNF reporter z-score, repeat 1","TNF reporter z-score, repeat 2",call
Or5d39 (olfactory receptor family 5 subfamily D member 39),1,-1.21,-4.15,0.513,-2.93,inactive
Or5d39 (olfactory receptor family 5 subfamily D member 39),2,-4.61,-4.15,-5.42,-3.8,active
Or5d39 (olfactory receptor family 5 subfamily D member 39),3,-4.86,-4.15,-5.24,-4.49,active
Or5d39 (olfactory receptor family 5 subfamily D member 39),4,4.47,0.136,8.01,0.938,active
Or5d39 (olfactory receptor family 5 subfamily D member 39),5,1.64,0.136,3.94,-0.666,inactive
Or5d39 (olfactory receptor family 5 subfamily D member 39),6,-1.42,0.136,-1.48,-1.35,inactive
Thbs2 (thrombospondin 2),1,-3.9,-4.53,-4.02,-3.77,active
Thbs2 (thrombospondin 2),2,-4.53,-4.53,-4.76,-4.29,active
Thbs2 (thrombospondin 2),3,-5.91,-4.53,-5.22,-6.61,active
Thbs2 (thrombospondin 2),4,3.06,0.291,5.58,0.546,active
Thbs2 (thrombospondin 2),5,1.82,0.291,3.99,-0.351,inactive
Thbs2 (thrombospondin 2),6,-1.17,0.291,0.0367,-2.39,inactive
Etnppl (ethanolamine phosphate phospholyase),1,-2.59,-3.26,-1.91,-3.28,active
Etnppl (ethanolamine phosphate phospholyase),2,-2.88,-3.26,-2.53,-3.24,active
Etnppl (ethanolamine phosphate phospholyase),3,-4.63,-3.26,-4.81,-4.45,active
Etnppl (ethanolamine phosphate phospholyase),4,1.63,0.335,2.83,0.437,inactive
Etnppl (ethanolamine phosphate phospholyase),5,1.67,0.335,3.12,0.233,inactive
Etnppl (ethanolamine phosphate phospholyase),6,0.0183,0.335,0.203,-0.167,inactive
Ube3c (ubiquitin protein ligase E3C),1,-1.34,-2.94,-1.08,-1.61,inactive
Ube3c (ubiquitin protein ligase E3C),2,-2.94,-2.94,-3.34,-2.55,active
Ube3c (ubiquitin protein ligase E3C),3,-5.95,-2.94,-5.1,-6.79,active
Ube3c (ubiquitin protein ligase E3C),4,9.93,4.6,14.6,5.28,active
Ube3c (ubiquitin protein ligase E3C),5,6.94,4.6,9.94,3.93,active
Ube3c (ubiquitin protein ligase E3C),6,0.743,4.6,1.7,-0.214,inactive
"Atg4d (autophagy related 4D, cysteine peptidase)",1,-1.04,-3.8,-2.12,0.0524,inactive
"Atg4d (autophagy related 4D, cysteine peptidase)",2,-3.8,-3.8,-3.35,-4.26,active
"Atg4d (autophagy related 4D, cysteine peptidase)",3,-4.76,-3.8,-5.19,-4.33,active
"Atg4d (autophagy related 4D, cysteine peptidase)",4,0.566,-1.19,2.08,-0.952,inactive
"Atg4d (autophagy related 4D, cysteine peptidase)",5,-0.972,-1.19,-0.311,-1.63,inactive
"Atg4d (autophagy related 4D, cysteine peptidase)",6,-1.82,-1.19,-1.42,-2.22,inactive
Or10g1b (olfactory receptor family 10 subfamily G member 1B),1,0.035,-1.95,-0.982,1.05,inactive
Or10g1b (olfactory receptor family 10 subfamily G member 1B),2,-1.79,-1.95,-2.92,-0.664,inactive
Or10g1b (olfactory receptor family 10 subfamily G member 1B),3,-4.87,-1.95,-4.44,-5.31,active
Or10g1b (olfactory receptor family 10 subfamily G member 1B),4,2.15,-0.0747,4.56,-0.27,active
Or10g1b (olfactory receptor family 10 subfamily G member 1B),5,1.15,-0.0747,2.29,0.0155,inactive
Or10g1b (olfactory receptor family 10 subfamily G member 1B),6,-1.24,-0.0747,-0.165,-2.31,inactive

11 entries from above, showing only “TNF reporter z-score, mean”:
Thbs2 (thrombospondin 2) #4 = 3.06
Thbs2 (thrombospondin 2) #5 = 1.82
Thbs2 (thrombospondin 2) #6 = -1.17
Etnppl (ethanolamine phosphate phospholyase) #1 = -2.59
Etnppl (ethanolamine phosphate phospholyase) #2 = -2.88
Etnppl (ethanolamine phosphate phospholyase) #3 = -4.63
Etnppl (ethanolamine phosphate phospholyase) #4 = 1.63
Etnppl (ethanolamine phosphate phospholyase) #5 = 1.67
Etnppl (ethanolamine phosphate phospholyase) #6 = 0.0183
Ube3c (ubiquitin protein ligase E3C) #1 = -1.34
Ube3c (ubiquitin protein ligase E3C) #2 = -2.94

More results:
target gene,reagent,"TNF reporter z-score, mean","gene median z, three same-vendor siRNAs","TNF reporter z-score, repeat 1","TNF reporter z-score, repeat 2",call
Dock2 (dedicator of cyto-kinesis 2),1,-2.77,-3.33,-2.72,-2.82,active
Dock2 (dedicator of cyto-kinesis 2),2,-3.65,-3.33,-4.81,-2.48,active
Dock2 (dedicator of cyto-kinesis 2),3,-4.08,-3.33,-3.85,-4.32,active
Dock2 (dedicator of cyto-kinesis 2),4,2.32,0.562,5.04,-0.391,active
Dock2 (dedicator of cyto-kinesis 2),5,1.53,0.562,3.3,-0.24,inactive
Dock2 (dedicator of cyto-kinesis 2),6,0.0234,0.562,1.36,-1.32,inactive
Vps35 (VPS35 retromer complex component),1,-2.06,-2.9,-2.91,-1.2,active
Vps35 (VPS35 retromer complex component),2,-2.74,-2.9,-2.09,-3.38,active
Vps35 (VPS35 retromer complex component),3,-3.04,-2.9,-3.21,-2.88,active
Vps35 (VPS35 retromer complex component),4,3.34,-0.134,5.75,0.937,active
Vps35 (VPS35 retromer complex component),5,-0.103,-0.134,0.999,-1.2,inactive
Vps35 (VPS35 retromer complex component),6,-2.83,-0.134,-4,-1.65,active
"Gstm3 (glutathione S-transferase, mu 3)",1,-0.544,-2.2,-1.09,-0.00122,inactive
"Gstm3 (glutathione S-transferase, mu 3)",2,-2.2,-2.2,-2.48,-1.91,active
"Gstm3 (glutathione S-transferase, mu 3)",3,-3.88,-2.2,-3.25,-4.51,active
"Gstm3 (glutathione S-transferase, mu 3)",4,2.97,-0.359,5.45,0.495,active
"Gstm3 (glutathione S-transferase, mu 3)",5,-0.359,-0.359,0.16,-0.878,inactive
"Gstm3 (glutathione S-transferase, mu 3)",6,-2.09,-0.359,-1.89,-2.28,active
Thrap3 (thyroid hormone receptor associated protein 3),1,-2.11,-2.43,-1.95,-2.27,active
Thrap3 (thyroid hormone receptor associated protein 3),2,-2.96,-2.43,-3.66,-2.25,active
Thrap3 (thyroid hormone receptor associated protein 3),3,-3.37,-2.43,-2.6,-4.13,active
Thrap3 (thyroid hormone receptor associated protein 3),4,3.51,1.18,6.08,0.94,active
Thrap3 (thyroid hormone receptor associated protein 3),5,2.3,1.18,3.18,1.42,active
Thrap3 (thyroid hormone receptor associated protein 3),6,-1.42,1.18,-0.941,-1.89,inactive
Ctif (CBP80/20-dependent translation initiation factor),1,2.6,-3.3,0.785,4.41,active
Ctif (CBP80/20-dependent translation initiation factor),2,-3.3,-3.3,-3.08,-3.53,active
Ctif (CBP80/20-dependent translation initiation factor),3,-4.14,-3.3,-4.04,-4.24,active
Ctif (CBP80/20-dependent translation initiation factor),4,3.83,-0.426,5.27,2.39,active
Ctif (CBP80/20-dependent translation initiation factor),5,-0.652,-0.426,-0.374,-0.93,inactive
Ctif (CBP80/20-dependent translation initiation factor),6,-0.865,-0.426,-1.25,-0.478,inactive
Ifi204 (interferon activated gene 204),1,8.46,4.5,6.09,10.8,active
Ifi204 (interferon activated gene 204),2,2.88,4.5,0.256,5.51,active
Ifi204 (interferon activated gene 204),3,1.68,4.5,-0.129,3.49,inactive
Ifi204 (interferon activated gene 204),4,-0.656,-1.15,-1.66,0.35,inactive
Ifi204 (interferon activated gene 204),5,-1.56,-1.15,-2.49,-0.63,inactive
Ifi204 (interferon activated gene 204),6,-1.28,-1.15,-0.622,-1.93,inactive
Apobec2,1,3.25,-3.01,3.75,2.75,active
Apobec2,2,-3.01,-3.01,-2.97,-3.05,active
Apobec2,3,-5.9,-3.01,-6.13,-5.66,active
Apobec2,4,5.12,1.38,7.07,3.18,active
Apobec2,5,1.38,1.38,2.66,0.0931,inactive
Apobec2,6,-1.71,1.38,-2.28,-1.15,inactive
